Results: paper PMC8698834
No constants are given. Whether binding was seen depends on the method and setting. Some entries that bind do so weakly or less than the wild type.

The chains behind the UniProt entries cited, without tags or fusion partners.
UniProt Q04IN8: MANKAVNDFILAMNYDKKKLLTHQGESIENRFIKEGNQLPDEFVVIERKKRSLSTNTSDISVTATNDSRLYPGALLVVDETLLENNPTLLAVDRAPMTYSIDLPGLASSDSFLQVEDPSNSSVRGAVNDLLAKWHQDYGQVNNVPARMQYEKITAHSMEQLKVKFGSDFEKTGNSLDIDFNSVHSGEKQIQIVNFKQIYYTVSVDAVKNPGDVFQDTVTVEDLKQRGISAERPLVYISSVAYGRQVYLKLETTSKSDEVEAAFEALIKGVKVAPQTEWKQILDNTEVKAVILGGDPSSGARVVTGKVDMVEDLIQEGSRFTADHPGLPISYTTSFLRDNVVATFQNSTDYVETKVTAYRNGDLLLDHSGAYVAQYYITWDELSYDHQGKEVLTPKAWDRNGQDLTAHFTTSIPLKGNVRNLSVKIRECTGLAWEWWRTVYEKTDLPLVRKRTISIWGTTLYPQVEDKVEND

Molecular target: recombinant pneumolysin (PLY) of Streptococcus pneumoniae (Streptococcus pneumoniae) (UniProt Q04IN8)
Test: SDS-resistant oligomers by SDS-PAGE and western blotting; rPLY 1 ug/mL in PBS, preincubated at 37 °C for 1 h with or without matcha supernatant (20-320 ug/mL) or catechins (0.1 or 1 mg/mL), then with 1% (v/v) sheep erythrocytes at 37 °C for 1 h; SDS sample buffer without beta-mercaptoethanol, 50 °C for 10 min; 7.5% SDS-PAGE; blot with anti-PLY clone PLY-4; oligomer on erythrocyte membranes; both purified

In the case of “recombinant pneumolysin (PLY) of Streptococcus pneumoniae (from UniProt Q04IN8 1-471)”, the binding is reported as “binds”.
